Like-named read-outs stand apart in the source and are kept apart here. Results are given in words; binding and its absence hold for the method and conditions named. For some assays here: In cells and extracts the contact can be indirect. Some results given as binding are weak or reduced against the parent protein; the word gives no strength.
How the values were obtained:
GST-importin β [1] = biological target: GST-importin β (UniProt Q14974)
[2] = biological target: GST fusion of the IBB domain from KPNA7 (human) (UniProt A9QM74); assay: pull-down; GST-IBB domains immobilised on glutathione beads; His-tagged recombinant importin β (1 μM) added without or with RanQ69L-GTP (15 μM) in the binding reaction; bound fractions immunoblotted for importin β; both purified
[3] = biological target: GST fusion of the IBB domain from KPNA7 (human) (UniProt A9QM74); assay: pull-down; preformed GST-IBB-importin β complexes on glutathione beads, RanQ69L-GTP (15 μM) added afterwards; bound and eluted fractions by semi-quantitative immunoblotting (IRDye secondary antibody, Odyssey); both purified
GST-importin β [4] = biological target: GST-importin β (UniProt Q14974); remark: listed apart in the source

By UniProt entry, the sequences of proteins in these tests, tags left out. Where a name states a change or a piece, a line headed by the entry shows the natural chain unless it says otherwise. Residues count along the entry.
UniProt Q14974: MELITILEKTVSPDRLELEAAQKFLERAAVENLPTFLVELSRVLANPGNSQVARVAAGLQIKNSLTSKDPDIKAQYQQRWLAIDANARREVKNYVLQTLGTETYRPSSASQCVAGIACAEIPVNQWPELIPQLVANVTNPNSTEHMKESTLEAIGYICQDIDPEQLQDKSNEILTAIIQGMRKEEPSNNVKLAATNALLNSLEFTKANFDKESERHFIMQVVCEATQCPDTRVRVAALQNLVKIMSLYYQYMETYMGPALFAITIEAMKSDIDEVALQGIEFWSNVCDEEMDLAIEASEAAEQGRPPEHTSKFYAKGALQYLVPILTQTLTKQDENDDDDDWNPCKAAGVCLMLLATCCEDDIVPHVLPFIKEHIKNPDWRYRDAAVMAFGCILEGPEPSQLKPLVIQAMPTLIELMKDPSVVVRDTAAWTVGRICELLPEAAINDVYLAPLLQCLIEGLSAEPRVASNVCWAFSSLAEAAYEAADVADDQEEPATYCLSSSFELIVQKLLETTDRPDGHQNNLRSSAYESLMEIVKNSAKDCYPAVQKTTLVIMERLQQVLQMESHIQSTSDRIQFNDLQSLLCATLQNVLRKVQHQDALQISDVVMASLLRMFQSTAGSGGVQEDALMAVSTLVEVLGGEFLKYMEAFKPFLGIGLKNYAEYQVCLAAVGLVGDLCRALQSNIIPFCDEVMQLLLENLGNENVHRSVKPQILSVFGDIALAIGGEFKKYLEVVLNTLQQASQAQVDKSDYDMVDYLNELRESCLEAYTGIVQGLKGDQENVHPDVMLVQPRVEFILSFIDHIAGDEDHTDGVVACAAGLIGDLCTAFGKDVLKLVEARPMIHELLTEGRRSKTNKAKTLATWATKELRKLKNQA
UniProt A9QM74: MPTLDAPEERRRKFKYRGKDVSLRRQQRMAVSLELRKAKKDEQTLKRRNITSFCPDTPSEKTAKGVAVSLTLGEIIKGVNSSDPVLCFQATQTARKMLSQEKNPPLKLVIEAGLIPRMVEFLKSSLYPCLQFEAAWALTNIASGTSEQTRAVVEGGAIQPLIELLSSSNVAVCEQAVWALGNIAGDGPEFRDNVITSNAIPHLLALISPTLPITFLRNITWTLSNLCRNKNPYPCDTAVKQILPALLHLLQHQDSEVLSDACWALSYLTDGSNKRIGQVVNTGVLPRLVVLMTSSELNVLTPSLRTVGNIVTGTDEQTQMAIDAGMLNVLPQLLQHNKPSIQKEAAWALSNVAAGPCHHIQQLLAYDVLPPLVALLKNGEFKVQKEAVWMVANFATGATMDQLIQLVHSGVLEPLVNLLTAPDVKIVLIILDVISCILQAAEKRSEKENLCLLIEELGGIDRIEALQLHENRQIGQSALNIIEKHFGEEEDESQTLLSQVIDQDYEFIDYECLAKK
GST fusion of the IBB domain from KPNA7: residues 1-57 of A9QM74
UniProt O15131: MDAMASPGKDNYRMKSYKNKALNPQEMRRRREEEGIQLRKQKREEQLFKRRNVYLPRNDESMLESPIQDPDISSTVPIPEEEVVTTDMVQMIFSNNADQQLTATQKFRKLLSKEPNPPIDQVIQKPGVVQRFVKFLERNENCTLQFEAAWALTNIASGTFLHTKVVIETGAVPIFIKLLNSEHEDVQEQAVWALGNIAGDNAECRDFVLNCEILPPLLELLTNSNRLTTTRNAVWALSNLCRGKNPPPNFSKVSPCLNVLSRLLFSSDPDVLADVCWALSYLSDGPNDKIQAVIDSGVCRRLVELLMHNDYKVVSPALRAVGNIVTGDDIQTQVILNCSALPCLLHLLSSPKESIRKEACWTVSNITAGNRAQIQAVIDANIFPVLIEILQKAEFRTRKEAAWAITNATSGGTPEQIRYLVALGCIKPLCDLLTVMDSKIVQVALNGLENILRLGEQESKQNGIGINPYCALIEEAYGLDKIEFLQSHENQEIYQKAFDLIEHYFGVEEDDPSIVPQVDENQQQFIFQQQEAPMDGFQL
UniProt O00629: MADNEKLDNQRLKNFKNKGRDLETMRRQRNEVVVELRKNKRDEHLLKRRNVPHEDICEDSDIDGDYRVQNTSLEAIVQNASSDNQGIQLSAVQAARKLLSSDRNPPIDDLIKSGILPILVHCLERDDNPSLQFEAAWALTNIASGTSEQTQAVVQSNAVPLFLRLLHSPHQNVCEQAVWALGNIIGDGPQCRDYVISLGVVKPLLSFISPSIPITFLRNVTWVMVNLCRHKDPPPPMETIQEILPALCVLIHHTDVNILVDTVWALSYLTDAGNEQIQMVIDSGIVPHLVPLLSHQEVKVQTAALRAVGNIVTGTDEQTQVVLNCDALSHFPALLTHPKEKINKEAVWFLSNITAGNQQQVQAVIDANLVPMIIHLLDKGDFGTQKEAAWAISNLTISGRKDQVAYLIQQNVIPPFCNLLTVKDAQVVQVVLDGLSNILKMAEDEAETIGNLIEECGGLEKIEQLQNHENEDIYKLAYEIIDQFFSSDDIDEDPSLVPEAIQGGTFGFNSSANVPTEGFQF
UniProt O00505: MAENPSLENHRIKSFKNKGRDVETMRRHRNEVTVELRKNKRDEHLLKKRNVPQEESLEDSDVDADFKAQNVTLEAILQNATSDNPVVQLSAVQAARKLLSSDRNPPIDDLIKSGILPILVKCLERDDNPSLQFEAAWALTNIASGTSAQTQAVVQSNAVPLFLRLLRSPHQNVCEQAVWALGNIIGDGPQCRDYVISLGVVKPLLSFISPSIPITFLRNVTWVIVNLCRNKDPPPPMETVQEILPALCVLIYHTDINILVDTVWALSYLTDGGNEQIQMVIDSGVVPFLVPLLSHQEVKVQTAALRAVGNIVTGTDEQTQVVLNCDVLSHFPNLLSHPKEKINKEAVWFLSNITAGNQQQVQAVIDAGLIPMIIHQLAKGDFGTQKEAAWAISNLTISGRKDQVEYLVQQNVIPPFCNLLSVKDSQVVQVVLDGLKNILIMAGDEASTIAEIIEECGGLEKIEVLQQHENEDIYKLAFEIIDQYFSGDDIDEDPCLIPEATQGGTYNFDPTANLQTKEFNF
UniProt P52294: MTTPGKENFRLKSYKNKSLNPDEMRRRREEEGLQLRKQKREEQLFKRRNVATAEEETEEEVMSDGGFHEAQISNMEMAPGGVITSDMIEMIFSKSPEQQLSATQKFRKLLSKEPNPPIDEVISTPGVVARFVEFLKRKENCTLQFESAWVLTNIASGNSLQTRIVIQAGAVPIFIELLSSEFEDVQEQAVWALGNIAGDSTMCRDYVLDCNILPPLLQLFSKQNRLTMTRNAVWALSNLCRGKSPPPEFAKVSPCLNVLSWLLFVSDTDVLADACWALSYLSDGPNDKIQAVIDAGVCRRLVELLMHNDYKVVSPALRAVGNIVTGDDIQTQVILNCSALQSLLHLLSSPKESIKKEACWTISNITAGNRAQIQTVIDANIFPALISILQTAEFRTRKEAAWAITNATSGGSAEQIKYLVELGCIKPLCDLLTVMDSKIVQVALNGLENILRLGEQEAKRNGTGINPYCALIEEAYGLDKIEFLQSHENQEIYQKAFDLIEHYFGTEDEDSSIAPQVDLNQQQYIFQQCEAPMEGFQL

| Substance | binding (GST-importin β [1]) | also measured |
| --- | --- | --- |
| KPNA5 (from UniProt O15131 1-539) | binds weakly |  |
| KPNA4 (from UniProt O00629 1-521) | binds weakly |  |
| His-tagged, recombinant importin β (from UniProt Q14974 1-876) |  | binding [2]: binds; binding [3]: binds |
| KPNA3 (from UniProt O00505 1-521) | binds weakly |  |
| Karyopherin α7 (KPNA7) (from UniProt A9QM74 1-516) |  | binding (GST-importin β [4]): binds |
| KPNA6 (from UniProt O60684 1-536) | binds weakly |  |
| KPNA1 (from UniProt P52294 1-538) | binds weakly |  |
